# Test results as given in US20070282017A1 (Harvard, published 2007).
# Protein sequences, listed by entry. Tags and fused reporters are not part of them. Lines headed by an entry give the natural chain unless they say otherwise; changes in a name come on top.
# UniProt Q13526: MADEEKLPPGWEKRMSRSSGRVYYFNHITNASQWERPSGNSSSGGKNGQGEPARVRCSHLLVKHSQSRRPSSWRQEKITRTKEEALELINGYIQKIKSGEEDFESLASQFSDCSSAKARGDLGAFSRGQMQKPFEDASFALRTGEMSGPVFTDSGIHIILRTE
# Results are given in words; binding and its absence hold for the method and conditions named. In cells and extracts the contact can be indirect. Some entries that bind do so weakly or less than the wild type. For some assays here: Tags and fused reporters may be left off the sequences shown.
# Columns and labels:
# [1] = target: T1, Endogenous JIP3 in cerebellar granule neurons (rat) (UniProt E9PSK7); assay: GST pulldown from granule neuron lysates, JIP3 immunoblot
# T1 sequence (phosphorylated (sites not given), looked up): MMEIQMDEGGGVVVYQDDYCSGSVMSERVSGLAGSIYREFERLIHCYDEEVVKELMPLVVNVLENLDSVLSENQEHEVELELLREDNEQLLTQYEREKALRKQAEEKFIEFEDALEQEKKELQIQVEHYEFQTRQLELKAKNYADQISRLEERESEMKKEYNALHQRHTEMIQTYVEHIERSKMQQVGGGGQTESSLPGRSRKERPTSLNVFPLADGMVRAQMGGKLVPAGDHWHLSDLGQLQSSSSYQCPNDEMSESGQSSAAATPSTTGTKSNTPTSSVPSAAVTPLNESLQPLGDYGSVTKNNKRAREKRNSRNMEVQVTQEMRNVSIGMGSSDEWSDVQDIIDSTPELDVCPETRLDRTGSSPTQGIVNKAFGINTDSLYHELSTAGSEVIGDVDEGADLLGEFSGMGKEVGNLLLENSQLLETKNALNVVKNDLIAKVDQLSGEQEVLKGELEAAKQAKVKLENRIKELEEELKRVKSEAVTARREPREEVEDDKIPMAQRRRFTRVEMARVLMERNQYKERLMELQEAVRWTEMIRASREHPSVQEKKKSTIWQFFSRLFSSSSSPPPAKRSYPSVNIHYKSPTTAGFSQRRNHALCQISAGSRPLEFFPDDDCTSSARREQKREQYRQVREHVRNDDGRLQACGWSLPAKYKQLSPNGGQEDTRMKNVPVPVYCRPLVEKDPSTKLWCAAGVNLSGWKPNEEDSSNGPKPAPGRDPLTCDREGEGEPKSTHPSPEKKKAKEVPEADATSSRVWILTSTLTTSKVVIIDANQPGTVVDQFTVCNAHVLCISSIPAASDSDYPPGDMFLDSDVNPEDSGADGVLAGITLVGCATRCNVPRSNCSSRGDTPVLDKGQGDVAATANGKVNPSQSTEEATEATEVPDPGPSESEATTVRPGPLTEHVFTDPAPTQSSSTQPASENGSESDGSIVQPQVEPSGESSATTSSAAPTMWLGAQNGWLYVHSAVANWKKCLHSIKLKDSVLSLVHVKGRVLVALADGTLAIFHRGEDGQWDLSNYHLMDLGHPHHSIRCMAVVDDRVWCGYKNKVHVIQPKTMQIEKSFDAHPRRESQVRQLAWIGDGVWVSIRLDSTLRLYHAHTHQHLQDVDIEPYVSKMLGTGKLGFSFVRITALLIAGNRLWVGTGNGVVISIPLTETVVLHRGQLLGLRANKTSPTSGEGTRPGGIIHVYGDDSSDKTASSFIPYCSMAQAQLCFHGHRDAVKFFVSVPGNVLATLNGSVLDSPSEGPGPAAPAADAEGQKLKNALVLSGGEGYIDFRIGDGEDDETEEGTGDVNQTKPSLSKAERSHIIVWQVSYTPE
# [2] = target: T2, FLAG-tagged JIP3 fragment 1-442 (UniProt Q9ESN9); assay: GST-Pin1 pulldown from 293T lysates, anti-FLAG immunoblot
# T2 sequence (looked up): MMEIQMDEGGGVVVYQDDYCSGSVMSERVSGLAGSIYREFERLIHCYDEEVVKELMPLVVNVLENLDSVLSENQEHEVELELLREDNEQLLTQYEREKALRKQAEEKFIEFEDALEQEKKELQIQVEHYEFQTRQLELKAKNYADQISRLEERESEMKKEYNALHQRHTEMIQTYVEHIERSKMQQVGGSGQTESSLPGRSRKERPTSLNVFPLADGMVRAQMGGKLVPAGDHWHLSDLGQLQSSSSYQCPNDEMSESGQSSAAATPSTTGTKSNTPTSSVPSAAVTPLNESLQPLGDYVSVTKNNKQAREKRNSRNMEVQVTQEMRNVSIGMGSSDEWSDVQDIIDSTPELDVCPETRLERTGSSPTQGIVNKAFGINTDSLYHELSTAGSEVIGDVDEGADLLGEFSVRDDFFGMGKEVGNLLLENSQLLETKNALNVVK
binding [1],binding [2],Substance
binds,,GST-Pin1 WW (recombinant GST fusion protein containing the WW domain of Pin1) (from UniProt Q13526 1-54)
,binds,Recombinant GST-Pin1 (from UniProt Q13526 1-163) (enzyme)
